Test results taken from the supplement of paper PMC12067093, “Discovery and optimisation of a covalent ligand for TRIM25 and its application to targeted protein ubiquitination” (Chemical Science, 2025).
The other results are listed elsewhere or left out.

Chains of the proteins cited; added tags and fusions are not shown. Lines headed by an entry give the natural chain unless they say otherwise; changes in a name come on top.
UniProt Q92576, whole entry, looked up: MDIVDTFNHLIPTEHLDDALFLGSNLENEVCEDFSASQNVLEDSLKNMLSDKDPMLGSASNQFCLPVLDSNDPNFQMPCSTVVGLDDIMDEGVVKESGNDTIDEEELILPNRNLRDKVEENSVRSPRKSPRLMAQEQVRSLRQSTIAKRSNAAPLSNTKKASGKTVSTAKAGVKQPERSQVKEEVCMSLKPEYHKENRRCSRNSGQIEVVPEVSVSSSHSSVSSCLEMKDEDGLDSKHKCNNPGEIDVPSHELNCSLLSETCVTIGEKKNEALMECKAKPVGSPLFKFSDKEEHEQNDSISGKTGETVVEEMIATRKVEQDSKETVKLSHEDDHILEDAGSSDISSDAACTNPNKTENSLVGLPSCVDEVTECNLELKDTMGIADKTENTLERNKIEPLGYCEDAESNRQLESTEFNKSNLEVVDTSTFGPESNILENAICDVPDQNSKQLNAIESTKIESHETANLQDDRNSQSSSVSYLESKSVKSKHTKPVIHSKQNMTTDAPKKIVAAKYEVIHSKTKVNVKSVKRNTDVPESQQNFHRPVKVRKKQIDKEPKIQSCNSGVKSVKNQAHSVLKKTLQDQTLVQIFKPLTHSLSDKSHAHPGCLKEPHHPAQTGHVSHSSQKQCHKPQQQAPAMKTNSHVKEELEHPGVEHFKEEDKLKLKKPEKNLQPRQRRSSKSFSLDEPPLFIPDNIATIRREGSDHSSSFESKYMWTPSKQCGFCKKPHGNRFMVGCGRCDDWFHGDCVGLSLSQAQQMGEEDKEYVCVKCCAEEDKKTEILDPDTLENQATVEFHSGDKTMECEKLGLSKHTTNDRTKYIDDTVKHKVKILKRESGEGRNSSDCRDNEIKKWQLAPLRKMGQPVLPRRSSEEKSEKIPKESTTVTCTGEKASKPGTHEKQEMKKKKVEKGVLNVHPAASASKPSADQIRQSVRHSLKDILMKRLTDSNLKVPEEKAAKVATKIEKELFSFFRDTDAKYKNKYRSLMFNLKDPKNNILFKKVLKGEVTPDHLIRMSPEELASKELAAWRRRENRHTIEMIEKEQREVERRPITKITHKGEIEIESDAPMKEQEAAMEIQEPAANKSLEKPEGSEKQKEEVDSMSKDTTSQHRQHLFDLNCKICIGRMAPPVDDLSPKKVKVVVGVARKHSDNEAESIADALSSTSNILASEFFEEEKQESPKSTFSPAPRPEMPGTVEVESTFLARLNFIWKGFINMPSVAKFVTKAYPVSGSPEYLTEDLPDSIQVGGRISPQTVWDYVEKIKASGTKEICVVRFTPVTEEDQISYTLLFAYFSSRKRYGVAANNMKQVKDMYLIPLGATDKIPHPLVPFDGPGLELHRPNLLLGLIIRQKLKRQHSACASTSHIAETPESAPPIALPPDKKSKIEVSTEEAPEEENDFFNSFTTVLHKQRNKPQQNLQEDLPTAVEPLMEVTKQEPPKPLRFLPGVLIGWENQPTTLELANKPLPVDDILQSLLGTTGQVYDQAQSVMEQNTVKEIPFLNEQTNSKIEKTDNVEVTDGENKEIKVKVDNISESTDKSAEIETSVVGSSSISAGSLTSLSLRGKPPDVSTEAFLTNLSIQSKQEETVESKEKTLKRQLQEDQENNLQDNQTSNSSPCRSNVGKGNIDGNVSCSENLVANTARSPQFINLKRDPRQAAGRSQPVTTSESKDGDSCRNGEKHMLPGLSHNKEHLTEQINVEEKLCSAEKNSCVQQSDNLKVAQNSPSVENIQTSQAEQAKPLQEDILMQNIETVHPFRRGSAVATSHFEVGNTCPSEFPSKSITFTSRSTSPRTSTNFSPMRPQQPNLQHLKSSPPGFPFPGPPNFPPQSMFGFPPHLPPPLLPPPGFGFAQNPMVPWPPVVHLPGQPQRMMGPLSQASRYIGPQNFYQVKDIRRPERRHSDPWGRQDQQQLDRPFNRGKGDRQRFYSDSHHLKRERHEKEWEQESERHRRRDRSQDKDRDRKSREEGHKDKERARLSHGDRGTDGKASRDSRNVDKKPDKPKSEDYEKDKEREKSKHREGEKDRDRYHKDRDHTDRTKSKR
UniProt O43175: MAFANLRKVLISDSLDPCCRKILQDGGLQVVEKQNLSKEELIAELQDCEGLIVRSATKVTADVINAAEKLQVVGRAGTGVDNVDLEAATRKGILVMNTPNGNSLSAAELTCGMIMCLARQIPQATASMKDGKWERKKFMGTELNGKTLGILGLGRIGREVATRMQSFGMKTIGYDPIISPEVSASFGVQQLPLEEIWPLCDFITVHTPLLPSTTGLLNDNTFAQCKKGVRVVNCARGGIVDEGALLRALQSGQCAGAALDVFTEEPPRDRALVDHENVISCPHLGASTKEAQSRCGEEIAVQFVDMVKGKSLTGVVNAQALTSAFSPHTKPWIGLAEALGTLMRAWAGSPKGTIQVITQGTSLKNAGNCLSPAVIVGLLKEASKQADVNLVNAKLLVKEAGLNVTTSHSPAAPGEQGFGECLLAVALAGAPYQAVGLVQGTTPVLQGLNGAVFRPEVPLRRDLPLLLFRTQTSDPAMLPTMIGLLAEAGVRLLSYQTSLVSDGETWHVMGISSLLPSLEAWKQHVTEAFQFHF
UniProt P07737, whole entry, looked up: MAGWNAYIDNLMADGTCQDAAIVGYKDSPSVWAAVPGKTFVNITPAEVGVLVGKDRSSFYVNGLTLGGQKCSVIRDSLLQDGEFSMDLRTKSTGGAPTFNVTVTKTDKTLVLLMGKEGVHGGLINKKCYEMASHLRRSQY
UniProt Q9NRX4: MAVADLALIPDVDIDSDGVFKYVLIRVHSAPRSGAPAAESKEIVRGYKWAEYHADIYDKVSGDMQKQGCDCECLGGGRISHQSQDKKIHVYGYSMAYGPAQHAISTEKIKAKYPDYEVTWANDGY
UniProt O96011: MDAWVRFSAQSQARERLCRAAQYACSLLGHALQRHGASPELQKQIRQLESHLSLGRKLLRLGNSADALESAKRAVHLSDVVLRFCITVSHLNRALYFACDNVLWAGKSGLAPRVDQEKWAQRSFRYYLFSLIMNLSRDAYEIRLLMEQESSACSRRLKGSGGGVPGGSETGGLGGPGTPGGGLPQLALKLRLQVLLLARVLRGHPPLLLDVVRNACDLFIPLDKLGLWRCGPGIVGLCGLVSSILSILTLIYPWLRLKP
UniProt Q8IWS0: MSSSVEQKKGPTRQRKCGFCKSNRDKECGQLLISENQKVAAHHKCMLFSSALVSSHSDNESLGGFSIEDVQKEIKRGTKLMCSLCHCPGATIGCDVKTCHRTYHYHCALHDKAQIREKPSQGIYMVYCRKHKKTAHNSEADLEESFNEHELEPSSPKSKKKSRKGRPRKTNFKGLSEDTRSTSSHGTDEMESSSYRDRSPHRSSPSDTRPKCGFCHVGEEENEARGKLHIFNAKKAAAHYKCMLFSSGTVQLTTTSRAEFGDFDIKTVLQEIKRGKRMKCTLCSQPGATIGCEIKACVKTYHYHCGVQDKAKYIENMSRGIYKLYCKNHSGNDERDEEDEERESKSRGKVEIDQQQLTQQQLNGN
UniProt A6NDG6: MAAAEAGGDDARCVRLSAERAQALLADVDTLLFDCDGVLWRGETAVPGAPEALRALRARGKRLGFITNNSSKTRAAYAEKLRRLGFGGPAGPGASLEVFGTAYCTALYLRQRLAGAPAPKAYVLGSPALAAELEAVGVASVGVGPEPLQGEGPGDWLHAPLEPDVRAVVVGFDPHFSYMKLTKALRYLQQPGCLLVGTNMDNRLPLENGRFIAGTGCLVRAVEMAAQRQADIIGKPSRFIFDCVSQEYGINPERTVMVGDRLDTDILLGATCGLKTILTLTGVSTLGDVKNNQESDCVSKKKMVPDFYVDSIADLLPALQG
UniProt O00628: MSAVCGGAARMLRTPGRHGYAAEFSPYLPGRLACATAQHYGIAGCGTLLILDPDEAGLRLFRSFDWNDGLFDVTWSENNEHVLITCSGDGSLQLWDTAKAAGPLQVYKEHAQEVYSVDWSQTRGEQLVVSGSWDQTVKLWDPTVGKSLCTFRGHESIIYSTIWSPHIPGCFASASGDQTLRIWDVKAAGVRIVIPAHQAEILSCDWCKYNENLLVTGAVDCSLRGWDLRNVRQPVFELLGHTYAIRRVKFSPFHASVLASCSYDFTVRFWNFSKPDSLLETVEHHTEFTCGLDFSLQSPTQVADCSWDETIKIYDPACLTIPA
UniProt Q6ZS72: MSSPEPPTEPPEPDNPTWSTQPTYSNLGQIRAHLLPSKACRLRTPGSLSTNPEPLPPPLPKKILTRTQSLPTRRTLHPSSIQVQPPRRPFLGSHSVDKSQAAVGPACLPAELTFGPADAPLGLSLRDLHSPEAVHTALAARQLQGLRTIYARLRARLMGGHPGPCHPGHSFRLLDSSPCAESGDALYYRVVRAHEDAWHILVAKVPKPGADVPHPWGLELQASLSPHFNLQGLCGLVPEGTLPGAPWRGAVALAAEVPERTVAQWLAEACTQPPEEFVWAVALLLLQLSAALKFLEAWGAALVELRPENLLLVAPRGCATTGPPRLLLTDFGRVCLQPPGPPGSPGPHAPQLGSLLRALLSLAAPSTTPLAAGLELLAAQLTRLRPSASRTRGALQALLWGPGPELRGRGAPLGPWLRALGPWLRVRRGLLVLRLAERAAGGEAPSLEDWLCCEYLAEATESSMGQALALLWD
UniProt Q13608: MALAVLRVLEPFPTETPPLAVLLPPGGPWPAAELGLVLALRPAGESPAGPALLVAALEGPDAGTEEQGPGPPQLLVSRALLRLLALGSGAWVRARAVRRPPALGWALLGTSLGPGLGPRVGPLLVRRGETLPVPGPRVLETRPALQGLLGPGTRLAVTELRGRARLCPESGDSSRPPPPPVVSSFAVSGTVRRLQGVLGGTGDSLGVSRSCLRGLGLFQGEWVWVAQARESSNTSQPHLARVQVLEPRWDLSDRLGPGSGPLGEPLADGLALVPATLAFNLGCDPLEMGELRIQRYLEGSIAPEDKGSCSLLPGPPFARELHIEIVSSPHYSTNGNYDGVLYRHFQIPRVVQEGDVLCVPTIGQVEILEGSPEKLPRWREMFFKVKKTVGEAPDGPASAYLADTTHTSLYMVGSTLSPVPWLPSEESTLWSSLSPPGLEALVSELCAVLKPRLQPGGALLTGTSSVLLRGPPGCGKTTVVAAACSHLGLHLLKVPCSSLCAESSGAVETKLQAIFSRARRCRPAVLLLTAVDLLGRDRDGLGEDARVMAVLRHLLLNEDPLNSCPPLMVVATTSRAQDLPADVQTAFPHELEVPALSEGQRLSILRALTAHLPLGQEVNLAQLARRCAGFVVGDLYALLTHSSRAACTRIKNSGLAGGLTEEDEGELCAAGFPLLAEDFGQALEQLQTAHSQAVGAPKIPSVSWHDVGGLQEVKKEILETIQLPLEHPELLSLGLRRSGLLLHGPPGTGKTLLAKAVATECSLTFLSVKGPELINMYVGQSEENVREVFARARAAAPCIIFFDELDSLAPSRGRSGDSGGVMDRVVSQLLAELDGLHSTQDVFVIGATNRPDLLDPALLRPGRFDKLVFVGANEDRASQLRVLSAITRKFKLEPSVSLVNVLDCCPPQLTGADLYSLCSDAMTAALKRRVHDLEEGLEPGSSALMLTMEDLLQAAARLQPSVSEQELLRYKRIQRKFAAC
UniProt O94880: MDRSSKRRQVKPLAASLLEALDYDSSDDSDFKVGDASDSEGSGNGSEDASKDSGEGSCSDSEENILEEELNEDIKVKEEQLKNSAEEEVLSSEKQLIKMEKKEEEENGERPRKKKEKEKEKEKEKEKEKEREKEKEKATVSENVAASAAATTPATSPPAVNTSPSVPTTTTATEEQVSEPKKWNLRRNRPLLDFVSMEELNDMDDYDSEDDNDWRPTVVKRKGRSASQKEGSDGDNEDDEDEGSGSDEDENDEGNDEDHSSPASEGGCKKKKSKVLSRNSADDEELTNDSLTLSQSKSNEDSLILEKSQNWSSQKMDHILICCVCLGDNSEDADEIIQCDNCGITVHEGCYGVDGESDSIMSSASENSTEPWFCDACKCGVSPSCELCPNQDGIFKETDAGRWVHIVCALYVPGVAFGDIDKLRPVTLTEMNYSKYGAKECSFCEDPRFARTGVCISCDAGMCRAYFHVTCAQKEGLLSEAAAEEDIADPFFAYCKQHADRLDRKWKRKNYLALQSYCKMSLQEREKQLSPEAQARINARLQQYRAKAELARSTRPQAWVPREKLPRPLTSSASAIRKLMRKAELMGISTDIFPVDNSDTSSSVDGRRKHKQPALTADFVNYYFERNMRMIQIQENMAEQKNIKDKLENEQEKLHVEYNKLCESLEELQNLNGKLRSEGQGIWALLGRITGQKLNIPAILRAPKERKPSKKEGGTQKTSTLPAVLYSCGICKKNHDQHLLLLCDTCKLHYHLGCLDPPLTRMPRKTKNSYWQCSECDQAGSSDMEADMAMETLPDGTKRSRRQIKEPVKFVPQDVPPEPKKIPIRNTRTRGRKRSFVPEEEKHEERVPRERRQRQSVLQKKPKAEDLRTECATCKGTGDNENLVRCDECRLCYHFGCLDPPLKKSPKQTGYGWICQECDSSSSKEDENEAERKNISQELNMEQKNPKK

Compound: CC1Cc2ccccc2N1C(=O)C1CCCN(C1)C(=O)CCl (mixture of isomers) [TRIM25 ligand 11 (diastereomer mixture)]
Assay: probe-labelled cysteine peptide fold change vs DMSO (competition) (log2 fold change); higher = less target engagement (more negative = stronger competition)
Conditions: THP-1, incubation time: 4 h
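Further: competitive chemoproteomic profiling in live THP-1 cells with an iodoacetamide desthiobiotin (IA-DTB) probe, comparing probe-labelled peptide intensities in compound-treated cells against DMSO-treated controls.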

Row | Target | probe-labelled cysteine peptide fold change (10 µM) | probe-labelled cysteine peptide fold change (50 µM)
1 | PIK3C2A_O00443_418_NICGENASVK (UniProt O00443) | 0.126 | 0.0445
2 | PHF3_Q92576_627_QCHKPQQQAPAMK (UniProt Q92576) | -0.157 | -0.344
3 | PHGDH_O43175_18_VLISDSLDPCCR (UniProt O43175) | 0.394 | 0.234
4 | PFN1_P07737_17_AGWNAYIDNLMADGTCQDAAIVGYK (UniProt P07737) | -0.0393 | -0.163
5 | PHIP_Q8WWQ0_1020_YEVGLPTLCCLK (UniProt Q8WWQ0) | 0.049 | 0.19
6 | PHIP_Q8WWQ0_1165_SLIYKPLDGEWGTNPRDEECER (UniProt Q8WWQ0) | -0.0812 | 0.0131
7 | PECAM1_P16284_256_CTIQVTHLAQEFPEIIIQK (UniProt P16284) | 0.063 | 0.1
8 | PGD_P52209_402_SAVENCQDSWRR (UniProt P52209) | -0.258 | -0.19
9 | PFAS_O15067_606_IVLVDDRECPVRR (UniProt O15067) | -0.0274 | -0.07
10 | PHPT1_Q9NRX4_73_QGCDCECLGGGR (UniProt Q9NRX4) | -0.0799 | 0.088
11 | PEX11B_O96011_153_LLMEQESSACSR (UniProt O96011) | 0.0598 | -0.186
12 | PFN1_P07737_128_KCYEMASHLR (UniProt P07737) | -0.517 | -0.414
13 | PHF8_Q9UPP1_89_AADIDLYHCPNCEVLHGPSIMK (UniProt Q9UPP1) | 0.0137 | -0.007
14 | PEX5_P50542_566_YNLGISCINLGAHR (UniProt P50542) | -0.016 | 0.127
15 | PHGDH_O43175_18+19_VLISDSLDPCCR (UniProt O43175) | 0.129 | 0.0771
16 | PEPD_P12955_183_FEVNNTILHPEIVECR (UniProt P12955) | 0.18 | 0.0861
17 | PHF6_Q8IWS0_94_LMCSLCHCPGATIGCDVK (UniProt Q8IWS0) | 0.0517 | -0.332
18 | PGP_A6NDG6_272_TVMVGDRLDTDILLGATCGLK (UniProt A6NDG6) | -0.0933 | -0.0353

Row | Target | probe-labelled cysteine peptide fold change (10 µM) | probe-labelled cysteine peptide fold change (50 µM)
19 | PEX11B_O96011_18+25_LCRAAQYACSLLGHALQRHGASPELQK (UniProt O96011) | -0.0919 | -0.101
20 | PHF3_Q92576_186_EEVCMSLKPEYHK (UniProt Q92576) | -0.0972 | -0.38
21 | PGGT1B_P53609_327+338_WPDSHPDALHAYFGICGLSLMEESGICK (UniProt P53609) | 0.121 | 0.0766
22 | PIGQ_Q9BRB3_247_LSTCEQLR (UniProt Q9BRB3) | 0.07 | -0.0172
23 | PEX7_O00628_207_IVIPAHQAEILSCDWCK (UniProt O00628) | 0.0804 | -0.183
24 | PIAS1_O75925_402_YCTDCDEIQFK (UniProt O75925) | 0.114 | 0.0387
25 | PDXP_Q96GD0_171_DPECLLVATDRDPWHPLSDGSR (UniProt Q96GD0) | -0.00251 | -0.0846
26 | PECAM1_P16284_476_DNPTEDVEYQCVADNCHSHAK (UniProt P16284) | -0.0513 | -0.167
27 | PEAK3_Q6ZS72_318_GCATTGPPR (UniProt Q6ZS72) | 0.0965 | 0.108
28 | PGP_A6NDG6_272_LDTDILLGATCGLK (UniProt A6NDG6) | 0.166 | 0.102
29 | PHYKPL_Q8IUZ5_416_FKPPMCFSLDNAR (UniProt Q8IUZ5) | -0.13 | 0.0571
30 | PEX6_Q13608_564_HLLLNEDPLNSCPPLMVVATTSR (UniProt Q13608) | 0.0403 | 0.016
31 | PELO_Q9BRX2_175_KGNCSQHDR (UniProt Q9BRX2) | 0.179 | -0.108
32 | PHF5A_Q7RTV0_75_ECTIQEK (UniProt Q7RTV0) | -0.112 | -0.084
33 | PGGT1B_P53609_131_APGTAHPYDSGHIAMTYTGLSCLVILGDDLSR (UniProt P53609) | 0.0949 | -0.0606
34 | PHF14_O94880-2_612_LCYHFGCLDPPLK (UniProt O94880) | -0.0051 | -0.056
35 | PHAX_Q9H814_51_AFQNTATACAPVSHYR (UniProt Q9H814) | 0.0131 | -0.208
36 | PGAM5_Q96HS1_229_QEEDSYEIFICHANVIR (UniProt Q96HS1) | 0.145 | 0.356
